Laboratory results: PubChem BioAssay AID1259282 (Sanger Institute, 2017)
The whole screen tested 794 reagents; shown is a part drawn at random. In the full data, 11 (1.4%) are marked active. 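Calls flag knock-downs that lower viability without drug; drug synergy appears only in the synergy scores; exposure time not stated.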 Unmarked entries are inactive. No viability above 1 is reported: the scale is capped. Not all columns of the deposit are shown. Not stated in the record: the amount of reagent, the time to read-out.

Test: 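Kinase knock-downs that work with targeted colorectal cancer drugs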 (primary screen)
Cell system: DIFI human colorectal cancer cell line
Reagents: siRNA pool against human genes
Treatment: anchor drug at a mild dose (BYL719 1 µM, cetuximab 5 µg/ml, trametinib 10 nM) or DMSO vehicle; exposure time not given
Measured: 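Robust z-score and replicate-mean viability versus non-targeting pool without drug, plus a synergy score for each low-dose anchor drug (BYL719, cetuximab, trametinib)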
Scale: robust z-score, knock-down alone: higher = more viable cells than typical knock-down; viability, knock-down alone: higher = more viable cells
Units: viability, knock-down alone in fraction of control
Active means: 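a knock-down is called essential if its DMSO robust z-score is under -3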
Meaning of the calls: active = essential (knock-down alone, z below -3); inactive = not essential

With COASY (GeneID 80347), what does the deposit list?
robust z-score, knock-down alone: -1.99; viability, knock-down alone: 0.607

What did the screen give for TBX3 (GeneID 6926)?
robust z-score, knock-down alone: 0.715; viability, knock-down alone: 1

With MAPK12 (GeneID 6300), how do the results read?
robust z-score, knock-down alone: 0.715; viability, knock-down alone: 1

With RBKS (GeneID 64080), how do the results read?
robust z-score, knock-down alone: 0.715; viability, knock-down alone: 1

With PRKCZ (GeneID 5590), what was measured?
robust z-score, knock-down alone: -1.06; viability, knock-down alone: 0.742

How did the screen score PCK1 (GeneID 5105)?
robust z-score, knock-down alone: -1.63; viability, knock-down alone: 0.659

With PHKA1 (GeneID 5255), what was measured?
robust z-score, knock-down alone: 0.715; viability, knock-down alone: 1

For NTRK3 (GeneID 4916), what does the deposit list?
robust z-score, knock-down alone: 0.715; viability, knock-down alone: 1

With STRADA (GeneID 92335), what does the deposit list?
robust z-score, knock-down alone: 0.715; viability, knock-down alone: 1

For RPS6KA1 (GeneID 6195), what does the deposit list?
robust z-score, knock-down alone: 0.715; viability, knock-down alone: 1

With RAD21 (GeneID 5885), what was measured?
robust z-score, knock-down alone: -1.74; viability, knock-down alone: 0.644

How did the screen score LRRK2 (GeneID 120892)?
robust z-score, knock-down alone: -0.671; viability, knock-down alone: 0.799

For ACVR2A (GeneID 92), what does the deposit list?
robust z-score, knock-down alone: 0.715; viability, knock-down alone: 1

For CASK (GeneID 8573), what was measured?
robust z-score, knock-down alone: -0.731; viability, knock-down alone: 0.79

With FCSK (GeneID 197258), what does the deposit list?
robust z-score, knock-down alone: -2.17; viability, knock-down alone: 0.581

How did the screen score PRKD3 (GeneID 23683)?
robust z-score, knock-down alone: 0.715; viability, knock-down alone: 1

For PIM3 (GeneID 415116), how do the results read?
robust z-score, knock-down alone: 0.686; viability, knock-down alone: 0.996

What did the screen give for TRIM27 (GeneID 5987)?
robust z-score, knock-down alone: -0.057; viability, knock-down alone: 0.888

For KRAS (GeneID 3845), how do the results read?
robust z-score, knock-down alone: -4.08 (active); viability, knock-down alone: 0.303

A few values from above.
Value of KRAS (GeneID 3845) in “viability, knock-down alone”: 0.303 (active)
Entry for MAPK12 (GeneID 6300) under “robust z-score, knock-down alone”: 0.715
